Assay results published in patent US20150368248A1, “2-SUBSTITUTED-6-BIARYLMETHYLAMINO-9-CYCLOPENTYL-9H-PURINE DERIVATIVES, USE THEREOF AS MEDICAMENTS, AND PHARMACEUTICAL COMPOSITIONS” (UNIVERZITA PALACKEHO V OLOMOUCI, priority 2013, published 2015).

Experiments:
Experiment in all cases: MTT cytotoxicity assay (Example 30)
Format in all cases: cell-based
HCC-1.1 (3sp) = conditions: Homo sapiens, 72 h, three days after drug addition, read-out: Inhibitory concentration IC50, 3sp
Description: (§1) Cytotoxicity of the compounds is the major property determining their anticancer effect in vivo. One of the parameters used, as the basis for cytotoxicity assays, is the metabolic activity of viable cells.
(§2) We have been using the following cell lines: HUH-7 and PLC/PRF/5 cell lines were maintained in DMEM supplemented with 10% fetal bovine serum, penicillin (100 U/ml) and streptomycin (100 μg/ml). […] HepG2 cell line was maintained in EMEM supplemented with 10% fetal bovine serum, sodium pyruvate (0.11 g/1), penicillin (100 U/ml) and streptomycin (100 μg/ml). All cell lines were cultivated at 37° C. in 5% CO2. For cytotoxicity assays, 3000 cells (10000 cells in case of HepG2 cell line) were seeded into each well of 96 well plate and the next day tested compounds were added at various concentrations in triplicates. Three days after drug addition MTT stock solution (5 mg/ml) was added into each well and incubated for 4 h. After this incubation period, produced formazan was dissolved by DMSO and final absorbance was measured at 570 nm with Synergy H4 Hybrid Multi-Mode Microplate Reader.

HCC-1.2 (3p) = conditions: Homo sapiens, HCC-1.2, 72 h, three days after drug addition, read-out: Inhibitory concentration IC50, 3p
Description: as §1, §2

HUH-7 = conditions: Homo sapiens, Huh-7, 72 h, three days after drug addition, read-out: Inhibitory concentration IC50, HUH-7
Description: as §1, §2

Hep3B = conditions: Homo sapiens, 72 h, three days after drug addition, read-out: Inhibitory concentration IC50, Hep3B
Description: as §1, §2

PLC/PRF/5 = conditions: Homo sapiens, PLC-PRF-5, 72 h, three days after drug addition, read-out: Inhibitory concentration IC50, PLC/PRF/5
Description: as §1, §2

Measured: IC50

CC[C@H](CO)Nc1nc(NCc2ccccc2)c2ncn(C(C)C)c2n1 [roscovitine, reference compound]
> 10 µM: all assays above
